In the supplement of paper PMC10849652 one finds log2 fold change data, which are given here for 38 targets.

Sequences of proteins named here, by UniProt entry; tags and fusion partners are left off. A change or cut given only in a name is not applied to a line headed by its entry.
UniProt Q7Z6J8: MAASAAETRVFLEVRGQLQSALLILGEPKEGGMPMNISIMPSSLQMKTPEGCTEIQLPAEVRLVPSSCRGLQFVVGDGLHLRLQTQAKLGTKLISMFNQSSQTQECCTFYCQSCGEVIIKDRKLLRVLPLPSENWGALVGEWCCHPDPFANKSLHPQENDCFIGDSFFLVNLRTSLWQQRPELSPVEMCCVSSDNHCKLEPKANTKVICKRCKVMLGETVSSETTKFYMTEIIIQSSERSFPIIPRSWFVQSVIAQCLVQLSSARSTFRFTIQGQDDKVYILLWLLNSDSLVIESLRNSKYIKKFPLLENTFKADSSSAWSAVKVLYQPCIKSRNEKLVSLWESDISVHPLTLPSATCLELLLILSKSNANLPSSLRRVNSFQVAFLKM
UniProt Q9NYU2: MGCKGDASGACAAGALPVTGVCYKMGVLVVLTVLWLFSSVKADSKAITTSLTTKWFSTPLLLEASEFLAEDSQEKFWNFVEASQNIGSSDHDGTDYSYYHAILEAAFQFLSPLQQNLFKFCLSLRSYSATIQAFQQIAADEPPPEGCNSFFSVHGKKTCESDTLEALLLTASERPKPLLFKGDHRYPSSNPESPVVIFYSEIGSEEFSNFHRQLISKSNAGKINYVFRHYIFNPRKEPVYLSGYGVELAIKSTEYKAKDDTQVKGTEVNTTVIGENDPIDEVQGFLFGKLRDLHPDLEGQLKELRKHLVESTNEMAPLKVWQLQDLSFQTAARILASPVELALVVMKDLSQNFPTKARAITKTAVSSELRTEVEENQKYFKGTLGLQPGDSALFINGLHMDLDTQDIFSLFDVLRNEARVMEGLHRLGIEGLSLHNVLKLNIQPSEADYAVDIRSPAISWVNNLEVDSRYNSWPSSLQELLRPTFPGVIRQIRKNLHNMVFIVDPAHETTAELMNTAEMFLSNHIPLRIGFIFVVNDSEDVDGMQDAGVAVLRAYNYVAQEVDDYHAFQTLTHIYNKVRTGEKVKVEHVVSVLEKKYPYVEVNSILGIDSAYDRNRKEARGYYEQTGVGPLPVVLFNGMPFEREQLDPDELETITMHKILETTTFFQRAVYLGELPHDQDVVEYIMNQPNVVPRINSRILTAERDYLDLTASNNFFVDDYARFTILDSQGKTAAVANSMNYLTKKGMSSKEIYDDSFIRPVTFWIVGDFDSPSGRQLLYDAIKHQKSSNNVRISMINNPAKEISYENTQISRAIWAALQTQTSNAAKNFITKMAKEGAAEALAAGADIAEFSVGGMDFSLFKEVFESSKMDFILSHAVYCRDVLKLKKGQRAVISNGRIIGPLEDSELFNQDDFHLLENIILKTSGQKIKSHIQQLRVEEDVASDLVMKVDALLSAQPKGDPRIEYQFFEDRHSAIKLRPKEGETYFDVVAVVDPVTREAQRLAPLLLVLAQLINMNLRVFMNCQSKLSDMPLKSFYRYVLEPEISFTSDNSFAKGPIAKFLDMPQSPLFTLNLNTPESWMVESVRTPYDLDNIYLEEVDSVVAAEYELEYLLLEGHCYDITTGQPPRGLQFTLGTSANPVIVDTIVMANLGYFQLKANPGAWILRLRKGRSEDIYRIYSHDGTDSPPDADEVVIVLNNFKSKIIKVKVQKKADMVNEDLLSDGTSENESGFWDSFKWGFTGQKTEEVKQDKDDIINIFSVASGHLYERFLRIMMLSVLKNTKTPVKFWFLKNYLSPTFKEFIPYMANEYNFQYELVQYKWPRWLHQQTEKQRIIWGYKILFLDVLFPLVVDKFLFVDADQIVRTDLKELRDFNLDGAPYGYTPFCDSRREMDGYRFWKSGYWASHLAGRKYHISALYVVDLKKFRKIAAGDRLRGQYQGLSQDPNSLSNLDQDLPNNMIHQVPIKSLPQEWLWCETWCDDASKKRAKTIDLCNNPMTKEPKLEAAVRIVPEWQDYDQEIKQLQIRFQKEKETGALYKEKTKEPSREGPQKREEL
UniProt Q8N806: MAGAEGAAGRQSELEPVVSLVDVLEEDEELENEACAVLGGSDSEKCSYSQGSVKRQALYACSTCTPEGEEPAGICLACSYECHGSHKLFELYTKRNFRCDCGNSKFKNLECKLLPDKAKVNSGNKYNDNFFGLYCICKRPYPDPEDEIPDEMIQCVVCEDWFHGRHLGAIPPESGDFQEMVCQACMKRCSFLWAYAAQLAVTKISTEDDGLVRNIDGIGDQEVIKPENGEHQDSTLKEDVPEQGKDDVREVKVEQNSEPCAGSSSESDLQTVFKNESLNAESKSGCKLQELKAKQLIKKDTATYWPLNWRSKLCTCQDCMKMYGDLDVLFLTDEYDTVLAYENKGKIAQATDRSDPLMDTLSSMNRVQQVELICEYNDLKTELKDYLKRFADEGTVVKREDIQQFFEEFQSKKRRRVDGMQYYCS
UniProt Q14694, whole entry, looked up: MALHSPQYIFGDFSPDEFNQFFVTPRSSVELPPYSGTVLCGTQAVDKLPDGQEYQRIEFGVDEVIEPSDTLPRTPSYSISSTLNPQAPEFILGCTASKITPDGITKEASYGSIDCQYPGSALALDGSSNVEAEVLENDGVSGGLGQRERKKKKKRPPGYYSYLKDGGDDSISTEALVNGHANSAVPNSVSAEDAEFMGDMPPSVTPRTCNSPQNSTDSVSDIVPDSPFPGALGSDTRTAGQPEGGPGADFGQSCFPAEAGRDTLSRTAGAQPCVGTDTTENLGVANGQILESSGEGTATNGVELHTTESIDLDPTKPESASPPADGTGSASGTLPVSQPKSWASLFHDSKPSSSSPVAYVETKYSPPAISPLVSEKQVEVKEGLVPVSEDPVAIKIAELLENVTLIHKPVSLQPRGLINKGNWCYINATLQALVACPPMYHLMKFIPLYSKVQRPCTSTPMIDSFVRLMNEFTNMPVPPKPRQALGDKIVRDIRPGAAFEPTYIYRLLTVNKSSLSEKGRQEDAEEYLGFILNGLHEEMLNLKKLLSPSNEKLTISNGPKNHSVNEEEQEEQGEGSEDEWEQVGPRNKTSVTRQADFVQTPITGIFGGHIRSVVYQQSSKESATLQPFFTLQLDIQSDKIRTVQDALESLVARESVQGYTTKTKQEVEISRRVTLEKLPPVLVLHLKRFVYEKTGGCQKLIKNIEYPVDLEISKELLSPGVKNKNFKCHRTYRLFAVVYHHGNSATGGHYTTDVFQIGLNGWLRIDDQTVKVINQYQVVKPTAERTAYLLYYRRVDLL
UniProt Q9UDW1: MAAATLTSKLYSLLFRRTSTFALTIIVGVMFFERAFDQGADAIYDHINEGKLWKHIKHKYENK
UniProt P40818: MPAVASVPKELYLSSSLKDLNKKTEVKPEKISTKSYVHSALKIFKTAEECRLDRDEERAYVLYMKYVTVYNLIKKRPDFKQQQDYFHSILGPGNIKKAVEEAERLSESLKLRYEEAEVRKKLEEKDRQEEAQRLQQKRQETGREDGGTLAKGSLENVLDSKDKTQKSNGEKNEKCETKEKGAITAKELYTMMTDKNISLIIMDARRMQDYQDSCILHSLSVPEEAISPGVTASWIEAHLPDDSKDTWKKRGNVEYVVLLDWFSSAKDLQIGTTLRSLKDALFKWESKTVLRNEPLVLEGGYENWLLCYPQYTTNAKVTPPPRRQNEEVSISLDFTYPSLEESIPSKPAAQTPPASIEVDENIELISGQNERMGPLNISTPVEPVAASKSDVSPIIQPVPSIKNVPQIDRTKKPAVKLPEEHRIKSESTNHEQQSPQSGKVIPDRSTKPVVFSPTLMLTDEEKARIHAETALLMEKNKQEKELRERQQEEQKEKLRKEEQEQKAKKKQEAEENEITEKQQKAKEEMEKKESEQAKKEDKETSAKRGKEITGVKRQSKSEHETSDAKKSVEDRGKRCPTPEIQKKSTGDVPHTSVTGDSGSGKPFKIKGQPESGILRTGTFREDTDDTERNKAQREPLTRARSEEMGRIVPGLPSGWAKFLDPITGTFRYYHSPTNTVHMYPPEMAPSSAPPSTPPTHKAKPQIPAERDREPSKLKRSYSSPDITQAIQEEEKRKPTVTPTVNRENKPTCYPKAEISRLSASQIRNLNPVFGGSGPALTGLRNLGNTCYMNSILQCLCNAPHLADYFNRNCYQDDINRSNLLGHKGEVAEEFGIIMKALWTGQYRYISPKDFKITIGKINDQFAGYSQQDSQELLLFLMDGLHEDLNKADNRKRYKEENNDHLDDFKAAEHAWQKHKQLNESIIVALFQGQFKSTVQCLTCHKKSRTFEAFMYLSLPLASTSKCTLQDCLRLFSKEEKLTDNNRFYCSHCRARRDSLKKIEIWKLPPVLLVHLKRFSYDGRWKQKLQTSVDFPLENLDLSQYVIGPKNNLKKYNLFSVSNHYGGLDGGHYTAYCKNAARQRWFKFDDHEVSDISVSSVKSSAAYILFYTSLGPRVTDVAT
UniProt Q86UV5: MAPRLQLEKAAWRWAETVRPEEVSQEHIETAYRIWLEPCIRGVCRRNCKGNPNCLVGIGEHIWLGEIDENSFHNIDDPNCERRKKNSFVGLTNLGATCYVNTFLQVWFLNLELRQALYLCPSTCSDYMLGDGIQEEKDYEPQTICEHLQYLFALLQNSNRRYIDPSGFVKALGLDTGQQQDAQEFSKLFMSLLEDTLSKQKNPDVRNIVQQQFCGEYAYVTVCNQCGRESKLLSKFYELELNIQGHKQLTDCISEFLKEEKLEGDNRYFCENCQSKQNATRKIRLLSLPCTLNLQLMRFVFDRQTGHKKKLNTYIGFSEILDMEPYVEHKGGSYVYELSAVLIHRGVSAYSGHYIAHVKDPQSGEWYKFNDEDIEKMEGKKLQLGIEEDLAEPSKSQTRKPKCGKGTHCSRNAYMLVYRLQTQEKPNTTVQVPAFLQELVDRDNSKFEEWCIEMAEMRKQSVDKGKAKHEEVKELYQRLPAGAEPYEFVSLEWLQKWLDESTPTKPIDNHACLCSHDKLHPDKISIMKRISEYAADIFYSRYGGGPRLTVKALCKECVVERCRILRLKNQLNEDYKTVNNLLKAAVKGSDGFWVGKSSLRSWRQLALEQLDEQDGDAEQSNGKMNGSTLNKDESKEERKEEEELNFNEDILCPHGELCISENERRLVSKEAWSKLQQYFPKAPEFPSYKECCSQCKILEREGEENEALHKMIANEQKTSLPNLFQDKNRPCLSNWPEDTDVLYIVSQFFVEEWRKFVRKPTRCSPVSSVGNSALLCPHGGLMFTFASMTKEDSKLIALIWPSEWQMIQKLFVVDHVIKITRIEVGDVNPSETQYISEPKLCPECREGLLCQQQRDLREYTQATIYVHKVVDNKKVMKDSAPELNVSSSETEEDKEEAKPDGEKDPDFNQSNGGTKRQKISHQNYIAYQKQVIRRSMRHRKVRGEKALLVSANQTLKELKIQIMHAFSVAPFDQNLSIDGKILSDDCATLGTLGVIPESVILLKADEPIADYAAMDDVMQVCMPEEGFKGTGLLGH
UniProt Q9NZ43: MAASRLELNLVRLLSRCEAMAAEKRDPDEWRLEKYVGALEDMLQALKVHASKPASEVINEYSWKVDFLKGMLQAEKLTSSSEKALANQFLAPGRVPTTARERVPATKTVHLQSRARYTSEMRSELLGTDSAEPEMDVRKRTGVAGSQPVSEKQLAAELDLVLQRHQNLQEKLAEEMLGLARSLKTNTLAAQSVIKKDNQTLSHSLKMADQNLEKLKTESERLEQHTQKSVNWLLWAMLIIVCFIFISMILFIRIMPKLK
UniProt Q9H3U1: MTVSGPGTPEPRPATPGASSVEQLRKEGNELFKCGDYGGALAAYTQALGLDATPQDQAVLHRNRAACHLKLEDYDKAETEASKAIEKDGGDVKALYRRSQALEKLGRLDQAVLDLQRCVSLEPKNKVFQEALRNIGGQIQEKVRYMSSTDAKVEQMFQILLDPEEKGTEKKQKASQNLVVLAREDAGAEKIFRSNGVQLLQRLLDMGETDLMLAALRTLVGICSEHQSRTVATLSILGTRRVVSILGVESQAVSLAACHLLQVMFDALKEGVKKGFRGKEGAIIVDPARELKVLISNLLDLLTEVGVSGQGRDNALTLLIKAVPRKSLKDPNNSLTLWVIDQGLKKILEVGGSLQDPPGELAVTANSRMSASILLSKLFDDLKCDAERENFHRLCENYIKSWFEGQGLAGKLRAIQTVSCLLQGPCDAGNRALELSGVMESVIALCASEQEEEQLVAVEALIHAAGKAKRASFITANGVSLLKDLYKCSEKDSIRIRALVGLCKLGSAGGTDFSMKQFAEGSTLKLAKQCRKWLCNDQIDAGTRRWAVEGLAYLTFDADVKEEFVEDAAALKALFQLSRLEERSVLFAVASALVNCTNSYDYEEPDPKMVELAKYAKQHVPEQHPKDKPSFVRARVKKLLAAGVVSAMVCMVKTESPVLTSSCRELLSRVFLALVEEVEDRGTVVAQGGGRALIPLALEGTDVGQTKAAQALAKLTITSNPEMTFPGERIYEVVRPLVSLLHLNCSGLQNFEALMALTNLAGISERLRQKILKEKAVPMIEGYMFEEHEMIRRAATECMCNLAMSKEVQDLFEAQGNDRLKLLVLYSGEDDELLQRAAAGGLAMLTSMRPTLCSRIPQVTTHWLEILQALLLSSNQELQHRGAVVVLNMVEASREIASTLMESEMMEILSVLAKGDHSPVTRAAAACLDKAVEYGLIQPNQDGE

This is one part of the list.

Compound in the first assay: CC1=C(SC2=C1C(=N[C@H](C3=NN=C(N32)C)CC(=O)N)C4=CC=C(C=C4)Cl)C
Kind of assay: log2 fold change, soluble protein after heating vs DMSO (PISA); higher = thermal stabilisation; K562 cells, 10 uM, 30 min; active = over 0.2 and 3.5 SD of the protein, either way, in both replicates (recomputed). In outline: (§1)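 K562 cells at 2×10^6 cells/mL were treated with 10 μM compound for 30 min. Aliquots were heated for 3 min across 48°C-58°C, pooled, and extracted in PBS with 0.5% NP-40 at 4°C; soluble protein was the supernatant after 21,000xg for 90 min. Soluble protein was quantified by TMTpro 16plex LC-MS/MS with channel sums equalised, and reported as log2 fold change in thermal stability against DMSO controls, with values from duplicates.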
For UXT isoform 2 (UniProt Q9UBK9), the log2 fold change is inactive: 0.063. For UBQLN4 (UniProt Q9NRR5), the log2 fold change is inactive: -0.03.

UCKL1 (UniProt Q9NWZ5): the log2 fold change is inactive: 0.034. For VAPA isoform 2 (UniProt Q9P0L0), the log2 fold change is inactive: -0.001. Take UBFD1 (UniProt O14562): the log2 fold change was inactive: 0.051. As to VAMP2 (UniProt P63027), the log2 fold change was inactive: 0.093.

On to UBE4B isoform 4 (UniProt O95155), for which the log2 fold change is inactive: 0.03.

UBE3D (UniProt Q7Z6J8): the log2 fold change is inactive: 0.057. Take UGGT1 (UniProt Q9NYU2): the log2 fold change was inactive: 0.027. Same read-out and setting: for UBR7 (UniProt Q8N806) the value was inactive: 0.043; for UQCC2 (UniProt Q9BRT2), inactive: -0.006; for UGDH (UniProt O60701), inactive: 0.052. Consider UCK1 (UniProt Q9HA47), for which the log2 fold change was inactive: 0.013.

Turning to UTP4 (UniProt Q969X6), the log2 fold change was inactive: 0.039.

USP10 isoform 2 (UniProt Q14694): the log2 fold change was inactive: -0.012.

Compound in a further assay: CC1=C2C(=CC=C1)N=C(N(C2=O)C3=CC=CC=C3C)CN4C=NC5=C(N=CN=C54)N
The assay is described as above. An outline of the steps:
as §1
VBP1 (UniProt P61758): the log2 fold change was inactive: -0.02. For UBE3C (UniProt Q15386), the log2 fold change is inactive: 0.072. The same measure, in the same setting: the same measure for UNC119B (UniProt A6NIH7): inactive: 0.094; for USP25 isoform 3 (UniProt Q9UHP3): inactive: 0.068.

Turning to UQCR10 (UniProt Q9UDW1), the log2 fold change is inactive: 0.142. For USP5 (UniProt P45974), the log2 fold change was inactive: 0.076.

For the target UIMC1 (UniProt Q96RL1), the log2 fold change is inactive: -0.028. For USP8 (UniProt P40818), the log2 fold change was inactive: 0.089. For USP24 (UniProt Q9UPU5), the log2 fold change is inactive: 0.105. Take USP48 isoform 8 (UniProt Q86UV5): the log2 fold change was inactive: 0.191. For USE1 (UniProt Q9NZ43), the log2 fold change is inactive: 0.009.

In the case of UBXN4 (UniProt Q92575), the log2 fold change is inactive: 0.038. The same measure, in the same setting: for UFM1 isoform 2 (UniProt P61960) the value was inactive: 0.066; for UNC45A (UniProt Q9H3U1), inactive: 0.023; for UTP15 (UniProt Q8TED0), inactive: -0.268.

Regarding USP39 (UniProt Q53GS9), the log2 fold change was inactive: -0.068. With VANGL1 (UniProt Q8TAA9), the log2 fold change was inactive: 0.049. Turning to VAMP4 (UniProt O75379), the log2 fold change is inactive: 0.058. On to UBR5 (UniProt O95071), for which the log2 fold change is inactive: -0.006. Take UQCRC2 (UniProt P22695): the log2 fold change was inactive: 0.01.

Consider USP22 (UniProt Q9UPT9), for which the log2 fold change is inactive: 0.166. For UNK (UniProt Q9C0B0), the log2 fold change was inactive: -0.023. Regarding UBXN10 (UniProt Q96LJ8), the log2 fold change is inactive: 0.024. On to UXT isoform 2 (UniProt Q9UBK9), for which the log2 fold change was inactive: 0.065. As for UBQLN4 (UniProt Q9NRR5), the log2 fold change is inactive: -0.011.

UCKL1 (UniProt Q9NWZ5): the log2 fold change was inactive: 0.041. On the same count and under the same terms, for VAPA isoform 2 (UniProt Q9P0L0) the value was inactive: 0.001; for UBFD1 (UniProt O14562), inactive: 0.04; for VAMP2 (UniProt P63027), inactive: -0.017. Consider UBE4B isoform 4 (UniProt O95155), for which the log2 fold change is inactive: 0.019. Still for that read-out and setting: the same measure for UBE3D (UniProt Q7Z6J8): inactive: 0.001; for UGGT1 (UniProt Q9NYU2): inactive: -0.003. Regarding UBR7 (UniProt Q8N806), the log2 fold change was inactive: 0.038. On the same count and under the same terms, the same measure for UQCC2 (UniProt Q9BRT2): inactive: -0.025; for UGDH (UniProt O60701): inactive: 0.103. Same read-out and setting: for UCK1 (UniProt Q9HA47) the value was inactive: 0.015; for UTP4 (UniProt Q969X6), inactive: -0.044; for USP10 isoform 2 (UniProt Q14694), inactive: -0.018.
